Results: the supplement of paper PMC11006884
Only a part is listed here, and it is no random draw. Single values of this set are uncertain.

Sequences of proteins named here, by UniProt entry; tags and fusion partners are left off. A change or cut given only in a name is not applied to a line headed by its entry.
UniProt Q14966: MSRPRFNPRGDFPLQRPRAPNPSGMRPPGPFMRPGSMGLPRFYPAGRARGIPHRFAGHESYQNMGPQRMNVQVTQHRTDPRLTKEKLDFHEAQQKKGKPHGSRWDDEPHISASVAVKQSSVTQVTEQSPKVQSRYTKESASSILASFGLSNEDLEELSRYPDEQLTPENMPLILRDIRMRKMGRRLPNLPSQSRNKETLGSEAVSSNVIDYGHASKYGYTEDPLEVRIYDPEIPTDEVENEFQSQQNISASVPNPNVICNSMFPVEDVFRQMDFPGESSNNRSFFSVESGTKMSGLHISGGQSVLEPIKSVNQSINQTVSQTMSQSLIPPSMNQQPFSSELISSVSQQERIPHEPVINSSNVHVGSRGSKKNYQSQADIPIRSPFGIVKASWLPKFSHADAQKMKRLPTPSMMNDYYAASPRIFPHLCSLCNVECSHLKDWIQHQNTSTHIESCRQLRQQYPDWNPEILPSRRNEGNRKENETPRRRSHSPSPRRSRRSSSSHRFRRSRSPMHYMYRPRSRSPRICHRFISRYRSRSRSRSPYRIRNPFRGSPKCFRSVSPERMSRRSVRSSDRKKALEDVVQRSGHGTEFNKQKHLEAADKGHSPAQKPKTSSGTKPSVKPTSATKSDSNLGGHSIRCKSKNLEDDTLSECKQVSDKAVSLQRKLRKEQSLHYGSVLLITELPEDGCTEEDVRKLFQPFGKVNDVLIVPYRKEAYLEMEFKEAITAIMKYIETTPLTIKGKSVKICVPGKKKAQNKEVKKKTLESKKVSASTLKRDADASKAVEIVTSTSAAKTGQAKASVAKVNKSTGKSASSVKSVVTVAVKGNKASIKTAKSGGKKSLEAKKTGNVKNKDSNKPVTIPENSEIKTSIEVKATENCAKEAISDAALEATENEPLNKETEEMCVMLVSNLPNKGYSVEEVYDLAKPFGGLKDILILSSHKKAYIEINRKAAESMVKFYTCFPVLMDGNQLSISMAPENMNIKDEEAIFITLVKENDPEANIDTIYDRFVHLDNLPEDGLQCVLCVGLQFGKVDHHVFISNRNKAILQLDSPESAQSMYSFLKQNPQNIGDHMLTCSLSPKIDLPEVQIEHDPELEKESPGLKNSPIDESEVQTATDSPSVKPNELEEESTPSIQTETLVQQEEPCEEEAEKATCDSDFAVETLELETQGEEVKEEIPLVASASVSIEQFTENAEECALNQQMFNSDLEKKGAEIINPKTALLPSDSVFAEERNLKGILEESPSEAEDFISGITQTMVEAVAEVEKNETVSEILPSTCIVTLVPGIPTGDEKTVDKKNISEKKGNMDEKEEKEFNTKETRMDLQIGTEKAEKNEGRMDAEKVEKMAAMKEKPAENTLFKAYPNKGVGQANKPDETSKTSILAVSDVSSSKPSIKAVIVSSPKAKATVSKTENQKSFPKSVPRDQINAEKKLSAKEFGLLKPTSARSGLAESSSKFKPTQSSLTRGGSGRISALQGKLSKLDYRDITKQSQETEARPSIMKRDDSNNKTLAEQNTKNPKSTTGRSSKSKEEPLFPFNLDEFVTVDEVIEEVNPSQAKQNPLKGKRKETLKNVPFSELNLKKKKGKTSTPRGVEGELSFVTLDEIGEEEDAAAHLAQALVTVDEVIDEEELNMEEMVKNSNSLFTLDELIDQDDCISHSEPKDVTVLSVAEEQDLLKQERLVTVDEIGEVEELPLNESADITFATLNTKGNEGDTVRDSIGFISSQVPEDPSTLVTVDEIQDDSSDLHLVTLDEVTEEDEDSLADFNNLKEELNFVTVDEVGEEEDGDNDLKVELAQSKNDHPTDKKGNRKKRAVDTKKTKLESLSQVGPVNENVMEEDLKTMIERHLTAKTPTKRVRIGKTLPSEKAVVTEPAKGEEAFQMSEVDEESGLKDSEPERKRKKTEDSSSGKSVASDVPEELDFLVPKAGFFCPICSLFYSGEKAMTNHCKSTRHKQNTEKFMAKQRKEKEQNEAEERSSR
UniProt Q13885, whole entry, looked up: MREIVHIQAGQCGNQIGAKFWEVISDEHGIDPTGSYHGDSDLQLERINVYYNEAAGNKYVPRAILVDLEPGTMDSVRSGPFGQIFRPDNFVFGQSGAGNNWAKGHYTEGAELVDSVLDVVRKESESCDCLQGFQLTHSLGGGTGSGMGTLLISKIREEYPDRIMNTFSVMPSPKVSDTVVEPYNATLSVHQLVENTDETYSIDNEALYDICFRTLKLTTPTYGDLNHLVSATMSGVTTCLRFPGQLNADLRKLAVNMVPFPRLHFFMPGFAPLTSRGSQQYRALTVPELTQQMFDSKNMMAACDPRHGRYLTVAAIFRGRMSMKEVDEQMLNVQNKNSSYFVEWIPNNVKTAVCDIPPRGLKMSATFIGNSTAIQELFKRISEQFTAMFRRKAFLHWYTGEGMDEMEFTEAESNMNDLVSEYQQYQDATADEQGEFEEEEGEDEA
UniProt Q14203, whole entry, looked up: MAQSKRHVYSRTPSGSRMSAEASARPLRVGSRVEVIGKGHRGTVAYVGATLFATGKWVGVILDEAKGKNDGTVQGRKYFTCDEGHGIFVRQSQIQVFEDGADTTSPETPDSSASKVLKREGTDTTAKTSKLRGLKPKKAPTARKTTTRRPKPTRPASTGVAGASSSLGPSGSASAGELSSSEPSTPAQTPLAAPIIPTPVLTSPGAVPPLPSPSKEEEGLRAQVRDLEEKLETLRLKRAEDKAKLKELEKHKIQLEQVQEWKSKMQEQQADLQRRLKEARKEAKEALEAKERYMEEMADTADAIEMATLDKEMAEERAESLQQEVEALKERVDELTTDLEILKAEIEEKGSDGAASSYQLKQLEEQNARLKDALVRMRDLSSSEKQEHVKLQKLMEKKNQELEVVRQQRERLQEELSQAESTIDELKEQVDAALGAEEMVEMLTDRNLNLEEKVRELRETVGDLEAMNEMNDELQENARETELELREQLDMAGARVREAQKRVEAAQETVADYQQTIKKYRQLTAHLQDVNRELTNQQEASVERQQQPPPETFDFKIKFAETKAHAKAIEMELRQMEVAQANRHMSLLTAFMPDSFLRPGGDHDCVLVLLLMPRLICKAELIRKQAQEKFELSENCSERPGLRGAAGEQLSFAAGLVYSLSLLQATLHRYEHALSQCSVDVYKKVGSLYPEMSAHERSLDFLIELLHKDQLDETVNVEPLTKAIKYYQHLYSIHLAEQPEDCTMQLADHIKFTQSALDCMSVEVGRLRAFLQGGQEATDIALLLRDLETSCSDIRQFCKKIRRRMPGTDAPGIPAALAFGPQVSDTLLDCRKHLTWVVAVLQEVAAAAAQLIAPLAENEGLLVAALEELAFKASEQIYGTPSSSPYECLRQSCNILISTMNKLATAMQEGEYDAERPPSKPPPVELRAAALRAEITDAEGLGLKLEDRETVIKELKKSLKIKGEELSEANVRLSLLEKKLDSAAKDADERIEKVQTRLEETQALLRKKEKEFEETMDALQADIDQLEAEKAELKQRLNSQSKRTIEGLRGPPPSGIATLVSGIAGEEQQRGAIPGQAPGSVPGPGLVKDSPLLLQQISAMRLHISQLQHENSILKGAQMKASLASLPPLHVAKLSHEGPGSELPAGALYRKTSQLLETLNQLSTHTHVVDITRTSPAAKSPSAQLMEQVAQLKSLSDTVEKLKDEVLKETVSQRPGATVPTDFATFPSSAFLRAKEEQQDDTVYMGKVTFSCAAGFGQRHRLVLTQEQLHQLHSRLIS
UniProt Q14558: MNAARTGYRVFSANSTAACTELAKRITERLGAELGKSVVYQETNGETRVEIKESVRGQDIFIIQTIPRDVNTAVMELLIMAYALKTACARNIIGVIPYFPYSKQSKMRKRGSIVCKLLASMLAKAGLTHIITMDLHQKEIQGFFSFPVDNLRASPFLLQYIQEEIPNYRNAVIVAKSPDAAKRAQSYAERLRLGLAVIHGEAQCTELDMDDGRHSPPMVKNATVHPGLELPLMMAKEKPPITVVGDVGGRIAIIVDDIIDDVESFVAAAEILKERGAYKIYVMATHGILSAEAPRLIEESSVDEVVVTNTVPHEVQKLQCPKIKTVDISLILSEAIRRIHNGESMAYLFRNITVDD
UniProt Q13555: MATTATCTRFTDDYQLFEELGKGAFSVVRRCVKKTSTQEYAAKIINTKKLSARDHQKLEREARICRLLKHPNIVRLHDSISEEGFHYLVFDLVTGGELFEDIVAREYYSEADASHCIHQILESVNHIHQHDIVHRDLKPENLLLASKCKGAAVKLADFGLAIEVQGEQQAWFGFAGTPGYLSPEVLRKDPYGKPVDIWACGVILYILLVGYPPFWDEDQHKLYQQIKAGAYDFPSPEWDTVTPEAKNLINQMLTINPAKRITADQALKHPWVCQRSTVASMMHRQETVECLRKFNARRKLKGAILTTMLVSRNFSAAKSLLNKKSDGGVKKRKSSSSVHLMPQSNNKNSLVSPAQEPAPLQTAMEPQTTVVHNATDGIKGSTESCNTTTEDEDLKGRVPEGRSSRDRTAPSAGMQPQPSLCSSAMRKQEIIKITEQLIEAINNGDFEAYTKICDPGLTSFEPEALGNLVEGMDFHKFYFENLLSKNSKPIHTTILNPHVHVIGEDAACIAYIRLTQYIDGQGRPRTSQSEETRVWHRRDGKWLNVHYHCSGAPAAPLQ
UniProt Q14CX7, whole entry: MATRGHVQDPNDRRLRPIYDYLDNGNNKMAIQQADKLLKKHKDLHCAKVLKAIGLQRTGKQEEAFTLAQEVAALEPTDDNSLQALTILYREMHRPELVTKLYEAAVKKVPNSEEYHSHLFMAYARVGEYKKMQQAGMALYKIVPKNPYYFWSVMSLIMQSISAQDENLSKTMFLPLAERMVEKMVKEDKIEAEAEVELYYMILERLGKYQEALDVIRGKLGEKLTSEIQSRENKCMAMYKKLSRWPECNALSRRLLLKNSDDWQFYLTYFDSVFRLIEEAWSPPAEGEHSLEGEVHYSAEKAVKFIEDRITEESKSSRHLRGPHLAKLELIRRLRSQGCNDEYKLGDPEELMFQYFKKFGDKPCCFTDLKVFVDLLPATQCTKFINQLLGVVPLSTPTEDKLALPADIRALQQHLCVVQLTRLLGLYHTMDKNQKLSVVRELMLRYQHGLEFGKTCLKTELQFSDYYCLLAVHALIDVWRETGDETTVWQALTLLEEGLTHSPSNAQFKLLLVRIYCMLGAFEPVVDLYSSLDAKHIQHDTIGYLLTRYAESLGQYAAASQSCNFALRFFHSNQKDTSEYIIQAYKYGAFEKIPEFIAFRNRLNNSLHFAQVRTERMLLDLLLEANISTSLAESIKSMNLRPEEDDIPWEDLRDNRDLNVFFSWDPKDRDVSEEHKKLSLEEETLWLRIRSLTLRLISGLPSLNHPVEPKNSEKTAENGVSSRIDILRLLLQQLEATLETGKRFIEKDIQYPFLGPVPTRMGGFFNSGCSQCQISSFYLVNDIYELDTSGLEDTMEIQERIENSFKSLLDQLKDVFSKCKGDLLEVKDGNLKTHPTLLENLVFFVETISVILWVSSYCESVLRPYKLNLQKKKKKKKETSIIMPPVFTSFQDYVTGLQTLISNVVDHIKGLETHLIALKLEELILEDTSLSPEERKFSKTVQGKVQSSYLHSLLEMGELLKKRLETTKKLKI
UniProt Q14151: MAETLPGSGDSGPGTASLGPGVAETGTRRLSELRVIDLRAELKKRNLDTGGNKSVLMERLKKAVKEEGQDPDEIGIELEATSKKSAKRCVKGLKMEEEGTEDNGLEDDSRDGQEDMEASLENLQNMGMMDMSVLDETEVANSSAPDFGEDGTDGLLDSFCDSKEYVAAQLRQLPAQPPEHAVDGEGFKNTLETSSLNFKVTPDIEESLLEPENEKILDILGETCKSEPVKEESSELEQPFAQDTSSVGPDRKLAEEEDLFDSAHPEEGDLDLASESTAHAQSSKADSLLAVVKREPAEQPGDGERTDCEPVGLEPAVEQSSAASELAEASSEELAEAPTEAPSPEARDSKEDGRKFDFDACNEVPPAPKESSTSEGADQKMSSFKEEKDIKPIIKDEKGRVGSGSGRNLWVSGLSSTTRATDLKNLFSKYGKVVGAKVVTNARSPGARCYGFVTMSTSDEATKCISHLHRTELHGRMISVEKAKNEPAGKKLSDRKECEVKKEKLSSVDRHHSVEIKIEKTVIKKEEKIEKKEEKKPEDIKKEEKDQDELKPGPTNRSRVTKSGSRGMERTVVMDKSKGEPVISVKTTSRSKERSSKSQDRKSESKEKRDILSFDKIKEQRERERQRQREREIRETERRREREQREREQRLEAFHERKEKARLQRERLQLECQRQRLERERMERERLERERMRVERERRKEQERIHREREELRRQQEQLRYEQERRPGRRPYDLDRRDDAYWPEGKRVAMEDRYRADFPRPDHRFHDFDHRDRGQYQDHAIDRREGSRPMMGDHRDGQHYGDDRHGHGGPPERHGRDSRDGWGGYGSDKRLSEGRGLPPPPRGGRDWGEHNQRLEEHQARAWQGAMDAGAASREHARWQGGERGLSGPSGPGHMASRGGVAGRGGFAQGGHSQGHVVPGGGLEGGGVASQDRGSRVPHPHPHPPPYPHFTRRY

Compound: COC(=O)/C=C/c1ccccc1 [methyl cinnamate]
Assay: log2 ratio of iodoacetamide-alkyne labeling of the cysteine site, DMSO over compound (competition); higher = stronger covalent engagement of the cysteine by the compound, active = 1 or more
Settings: 500 µM; treatment time 1 h; system: HEK293T cell lysate
Outline: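 Electrophile (500 µM) or vehicle was added to HEK293T lysate (2 mg/mL) for 1 h at ambient temperature before iodoacetamide alkyne labelling (1 h) and click coupling to sCIP-TMT reagents. After pooling, overnight trypsin digestion at 37 °C, streptavidin enrichment and acid elution, peptides were measured by Orbitrap Eclipse LC-MS/MS with FAIMS and quantified in FragPipe. Each cysteine's log2 competition ratio compares mean control-channel with mean compound-channel reporter intensity, control over compound. Data came from duplicate channels across three replicates, excluding cysteines quantified in only one replicate.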

log2 ratio of iodoacetamide-alkyne labeling, inactive:
ZNF638 C1930 (UniProt Q14966) -0.273
UniProt Q13885_C354 0.235
DCTN1 C791 (UniProt Q14203) 0.178
DSG2 C871 (UniProt Q14126) -0.0236
PRPSAP1 C19 (UniProt Q14558) -0.00286
GAMT C220 (UniProt Q14353) 0.181
CAMK2G C273 (UniProt Q13555) 0.179
RAPGEF1 C817 (UniProt Q13905) 0.135
CHD4 C1121 (UniProt Q14839) -0.0501
TTLL12 C528 (UniProt Q14166) -0.204
BOP1 C108 (UniProt Q14137) 0.221
SQSTM1 C289 (UniProt Q13501) 0.524
UniProt Q15019_C111 0.236
UniProt Q14CX7_C339 0.129
SAFB2 C361 (UniProt Q14151) 0.154

2 consecutive records from above:
log2 ratio of iodoacetamide-alkyne labeling, inactive:
CHD4 C1121 (UniProt Q14839) -0.0501
TTLL12 C528 (UniProt Q14166) -0.204
